# PubChem BioAssay AID504444 (National Center for Advancing Translational Sciences (NCATS), 2011)
# Out of some 360,000 compounds screened, about 7,500 (2.1%) were called active. The shares of active, inactive and inconclusive entries below differ from those in the screen. Calls come from the whole dose curve; as a rule, active = well fitted inhibition curve with a large enough effect; inconclusive = small, poorly fitted or top-dose-only effect, or effect the other way; inactive = flat fitted curve, though single readings scatter. A potency beside an inconclusive call is a rough fit, not a confirmed value.
# Assay: Nrf2 qHTS screen for inhibitors; note: nearly all actives have a fitted effect of over 60% in size
# Conditions: A549 ARE-Fluc reporter, luciferase luminescence, 18-24 h; series mostly up to 46 µM
# Outline: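 Two sequential reads on A549 ARE_Fluc cells exposed to compound for 18-24 h: a CellTiter-Fluor fluorescence read for viability, then a luciferase luminescence read for Nrf2/ARE activity.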
# Potency is the fitted concentration of half-maximal effect.
row,SMILES,Potency
1,CCOc1ccccc1NC(=O)CN1c2ccccc2S(=O)(=O)c2ccccc21,"inconclusive: 0.0731 µM [activator, full curve, poor fit]"
2,O=C(CSc1nccc(=O)[nH]1)Nc1ccc2c(c1)OCCO2,"inconclusive: 1.16 µM [activator, full curve]"
3,O=C(COc1cccc2c1CCN(Cc1ccccc1F)C2=O)N1CCCCC1,"inconclusive: 14.6 µM [falling, single point]"
4,OC(C1=CC(=Cc2ccncc2)c2ccccc21)c1ccncc1 (stereo not drawn),active: 20.6 µM
5,CCOC(=O)N1CCN(C(=O)c2ccc(N(C)S(=O)(=O)c3ccc(C)cc3)cc2)CC1,active: 23.1 µM
6,O=C(NCc1cccc(F)c1)c1cccc(OC2CCN(C(=O)C3CC3)CC2)c1,active: 23.1 µM
7,Cn1cc(C(=O)c2ccc(F)cc2)cc1-c1nc2ccccc2n1C,"inconclusive: 32.6 µM [falling, single point]"
8,Cc1ccc(NC(=S)NCCSc2ccc(Cl)cc2)cc1,"inconclusive: 29.1 µM [falling, single point]"
9,COc1ccc(NC(=O)C2CCC(=O)N2C(=O)OCc2ccccc2)cc1 (stereo not drawn),"inconclusive: 5.17 µM [falling, single point]"
10,CN(c1cccc(Cl)c1)S(=O)(=O)c1cccc(C(=O)NCc2ccncc2)c1,"inconclusive: 14.6 µM [falling, partial curve]"
11,CN(C)c1ccc(C(=O)OCC(=O)Nc2cccc(S(=O)(=O)N3CCCC3)c2)cc1,"inconclusive: 20.6 µM [falling, single point]"
12,CC(=O)OCCN1CCN(C(=O)CN2C(=O)NC(c3ccccc3)(c3ccccc3)C2=O)CC1,"inconclusive: 29.1 µM [falling, single point]"
13,CC(C)(C)c1ccc(-c2csc(NNC3=NCCCCC3)n2)cc1,"inconclusive: 2.59 µM [activator, single point]"
14,O=C(Nc1nnc(C2CC2)s1)c1ccc(Cl)c(S(=O)(=O)N2CCc3ccccc3C2)c1,active: 23.1 µM
15,COc1cc2[nH]c(=O)n(CCCCCC(=O)N3CCN(c4ccccc4)CC3)c(=O)c2cc1OC,"inconclusive: 16.4 µM [falling, single point]"
16,O=C(c1ccc(N2CCCC2=O)cc1)N1CCN(c2cccc(C(F)(F)F)c2)CC1,"inconclusive: 29.1 µM [falling, single point]"
17,COc1ccc(/C=N/OCC(=O)N2CC3(C)CC2CC(C)(C)C3)cc1OC (stereo not drawn),"inconclusive: 32.6 µM [falling, single point]"
18,O=C(NCc1cccs1)c1ccc(CSc2nc3cccnc3n2Cc2ccccc2)cc1,"inconclusive: 20.6 µM [falling, single point]"

# Laid out differently: results already given
row | SMILES | Potency
5 | CCOC(=O)N1CCN(C(=O)c2ccc(N(C)S(=O)(=O)c3ccc(C)cc3)cc2)CC1 | active: 23.1 µM
6 | O=C(NCc1cccc(F)c1)c1cccc(OC2CCN(C(=O)C3CC3)CC2)c1 | active: 23.1 µM
